Measurements published in paper doi:10.1101/2024.06.16.599208.
Construct, isoform or probe ends are uncertain for at least one entry. At least one verdict rests on a figure or table, not on a statement of the authors.

By UniProt entry, the sequences of proteins in these tests, tags left out. Residues count along the entry.
UniProt Q00839, 221-679: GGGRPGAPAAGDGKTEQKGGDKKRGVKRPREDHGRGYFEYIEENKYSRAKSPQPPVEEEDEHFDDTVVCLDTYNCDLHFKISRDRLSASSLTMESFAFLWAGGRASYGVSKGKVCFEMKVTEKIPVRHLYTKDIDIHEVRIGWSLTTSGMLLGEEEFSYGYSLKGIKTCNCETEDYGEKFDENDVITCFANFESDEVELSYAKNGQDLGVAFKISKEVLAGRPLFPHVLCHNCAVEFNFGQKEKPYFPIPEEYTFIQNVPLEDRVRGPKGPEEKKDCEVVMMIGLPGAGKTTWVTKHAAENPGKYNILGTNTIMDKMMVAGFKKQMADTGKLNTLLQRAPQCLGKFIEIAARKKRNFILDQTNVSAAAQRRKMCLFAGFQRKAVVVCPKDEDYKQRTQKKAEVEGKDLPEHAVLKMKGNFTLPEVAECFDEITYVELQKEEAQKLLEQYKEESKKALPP

Biological target: SAF-A SPRNK domain (SPRY/PNK) WT (UniProt Q00839)
Assay: EMSA
Conditions: residues 221-679

| Sequence | binding result |
| --- | --- |
| UUUUUUUUUUUUUUUUUUUU [oligoU20-DY681] | binds |
| UUUUUUUUUUUUUUUUUUUUUUUUUUUUUUUUUUUUUUUU [oligoU40-DY681] | binds |
